Paper PMC11252128
No constants are given. Whether binding was seen depends on the method and setting. Binding can be weak; no strength is given. For some assays here: In cells and extracts the contact can be indirect. For some assays here: Where a sequence is shown, tags or fusion partners need not be part of it. Values belong to the molecule of their own block, whether it stands above or below them.

Columns and labels:
[1] = biological target: T1, Cluc-OsETR2 (rice (Oryza sativa L.)) (UniProt Q7XX84); assay: split reporter; luciferase complementation imaging (LCI), enhanced-interaction assay in N. benthamiana leaves: Cluc-receptor plus OsCTR2-Nluc co-infiltrated with GFP or MHZ3-GFP on the two sides of the same leaf
T1 sequence: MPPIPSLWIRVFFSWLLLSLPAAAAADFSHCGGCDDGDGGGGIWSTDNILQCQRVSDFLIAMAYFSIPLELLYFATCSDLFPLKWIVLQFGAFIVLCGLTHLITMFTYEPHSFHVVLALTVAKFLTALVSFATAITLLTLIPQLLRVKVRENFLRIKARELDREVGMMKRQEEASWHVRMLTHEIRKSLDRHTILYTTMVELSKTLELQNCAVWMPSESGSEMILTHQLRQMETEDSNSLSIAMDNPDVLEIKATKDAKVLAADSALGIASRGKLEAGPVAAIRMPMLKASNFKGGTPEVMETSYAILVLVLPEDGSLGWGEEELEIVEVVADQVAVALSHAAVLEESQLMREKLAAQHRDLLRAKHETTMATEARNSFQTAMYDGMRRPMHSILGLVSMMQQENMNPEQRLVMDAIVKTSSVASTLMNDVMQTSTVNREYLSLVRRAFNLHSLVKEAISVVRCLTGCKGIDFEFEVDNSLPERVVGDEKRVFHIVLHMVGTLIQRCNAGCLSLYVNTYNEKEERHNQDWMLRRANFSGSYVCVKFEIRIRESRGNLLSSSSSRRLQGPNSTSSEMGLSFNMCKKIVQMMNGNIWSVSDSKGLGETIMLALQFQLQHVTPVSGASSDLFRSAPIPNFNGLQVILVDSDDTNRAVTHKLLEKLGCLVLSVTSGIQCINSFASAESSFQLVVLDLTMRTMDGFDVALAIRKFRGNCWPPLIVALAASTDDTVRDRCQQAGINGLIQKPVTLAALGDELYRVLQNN

[2] = biological target: T2, Cluc-OsERS2 (rice (Oryza sativa L.)) (UniProt Q0DKM0); assay: as above
T2 sequence: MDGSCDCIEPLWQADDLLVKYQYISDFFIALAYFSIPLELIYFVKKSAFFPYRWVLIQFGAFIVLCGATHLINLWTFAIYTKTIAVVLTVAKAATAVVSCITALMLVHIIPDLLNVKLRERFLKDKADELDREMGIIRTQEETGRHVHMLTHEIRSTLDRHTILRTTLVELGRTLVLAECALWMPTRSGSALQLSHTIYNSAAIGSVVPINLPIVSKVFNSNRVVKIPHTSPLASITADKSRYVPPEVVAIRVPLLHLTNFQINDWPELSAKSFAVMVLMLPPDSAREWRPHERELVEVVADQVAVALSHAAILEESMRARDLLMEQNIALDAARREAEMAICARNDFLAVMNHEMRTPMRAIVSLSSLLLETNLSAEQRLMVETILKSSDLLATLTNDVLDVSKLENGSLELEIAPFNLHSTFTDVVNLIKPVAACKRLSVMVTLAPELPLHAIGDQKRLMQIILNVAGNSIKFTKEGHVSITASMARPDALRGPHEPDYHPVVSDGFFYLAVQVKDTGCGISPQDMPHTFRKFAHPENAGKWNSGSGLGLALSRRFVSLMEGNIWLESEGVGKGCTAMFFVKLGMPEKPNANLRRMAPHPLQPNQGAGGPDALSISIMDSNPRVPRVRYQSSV

[3] = biological target: MHZ3-Cub (rice (Oryza sativa L.)); assay: two-hybrid; split-ubiquitin membrane yeast two-hybrid (MbYTH), yeast NMY51; bait MHZ3-Cub, preys NubG fusions; growth on SD-Trp-Leu-His after 5 days at 30 °C
[4] = biological target: MHZ3-GFP (rice (Oryza sativa L.)); assay: co-IP; rice protoplasts (Osetr2 mhz3 or Osers2 mhz3) co-transfected, 16 h at 28 °C in the dark; IP buffer 50 mM HEPES pH 7.5, 150 mM NaCl, 0.5 mM EDTA, 0.5% NP-40; GFP-Trap_A beads 1 h at 4 °C; blots anti-GFP, anti-c-Myc, anti-FLAG
[5] = biological target: MHZ3-Nluc (rice (Oryza sativa L.)); assay: split reporter; luciferase complementation imaging (LCI) in N. benthamiana leaves, Cluc and Nluc fusions co-infiltrated; also with or without 2 h of 10 μL/L ethylene after 48 h at 22 °C

binding [1]: binds | binding [2]: binds
Molecule: OsCTR2-Nluc (rice (Oryza sativa L.)) (enzyme)

binding [3]: binds
B1: NubG-OsERS2 (receptor, UniProt Q0DKM0 1-635)
chain: T2 sequence

binding [4]: binds
B2: OsERS2-Myc (receptor, UniProt Q0DKM0 1-635)
chain: T2 sequence

binding [5]: binds
B3: Cluc-OsERS2 (receptor, UniProt Q0DKM0 1-635)
chain: T2 sequence

binding [3]: binds
B4: NubG-OsETR2 (receptor, UniProt Q7XX84 1-763)
chain: T1 sequence

binding [4]: binds
B5: OsETR2-Myc (receptor, UniProt Q7XX84 1-763)
chain: T1 sequence

binding [5]: binds
B6: Cluc-OsETR2 (receptor, UniProt Q7XX84 1-763)
chain: T1 sequence
